By IC50 is commonly meant the concentration at which inhibition is half-maximal.

Protein sequences, listed by entry. Tags and fused reporters are not part of them. Residues count along the entry.
UniProt P30551, whole entry: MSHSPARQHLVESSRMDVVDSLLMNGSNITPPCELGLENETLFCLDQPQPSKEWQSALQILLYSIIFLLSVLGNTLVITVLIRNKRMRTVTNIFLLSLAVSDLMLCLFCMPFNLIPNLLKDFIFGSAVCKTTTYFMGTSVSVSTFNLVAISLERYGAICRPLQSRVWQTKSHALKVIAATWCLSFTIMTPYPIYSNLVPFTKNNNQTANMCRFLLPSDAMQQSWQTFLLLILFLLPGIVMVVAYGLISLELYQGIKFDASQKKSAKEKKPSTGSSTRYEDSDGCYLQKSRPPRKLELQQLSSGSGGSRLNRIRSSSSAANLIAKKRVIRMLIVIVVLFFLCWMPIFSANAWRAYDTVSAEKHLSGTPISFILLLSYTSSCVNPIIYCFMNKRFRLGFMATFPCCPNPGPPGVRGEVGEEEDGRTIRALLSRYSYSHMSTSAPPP
UniProt H0VZC5, 1-426: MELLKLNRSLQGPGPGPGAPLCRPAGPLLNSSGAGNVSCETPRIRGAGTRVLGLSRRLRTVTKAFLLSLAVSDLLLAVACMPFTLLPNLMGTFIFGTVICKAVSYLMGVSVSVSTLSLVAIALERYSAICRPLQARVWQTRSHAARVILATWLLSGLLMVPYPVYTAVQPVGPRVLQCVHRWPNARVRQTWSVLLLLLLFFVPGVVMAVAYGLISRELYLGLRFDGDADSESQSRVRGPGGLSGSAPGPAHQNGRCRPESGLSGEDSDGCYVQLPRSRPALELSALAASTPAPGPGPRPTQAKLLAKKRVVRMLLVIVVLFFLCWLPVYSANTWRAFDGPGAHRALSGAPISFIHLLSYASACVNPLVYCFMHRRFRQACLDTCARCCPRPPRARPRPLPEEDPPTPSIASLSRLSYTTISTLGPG

Like-named read-outs stand apart in the source and are kept apart here. Structures were worked out from names or drawings and are uncertain.

The target in one assay is CCKA receptor (Rattus norvegicus, UniProt P30551). Nature of the assay: 125I-CCK-8 receptor binding assay, CCKA (rat pancreas). The settings on record: Table 3; for IC50: read-out: IC50 CCKA; for Ratio CCKB:CCKA: ratio of IC50 values.
The next assay concerns the target CCKB receptor (Cavia porcellus, UniProt H0VZC5). Put plainly: 125I-CCK-8 receptor binding assay, CCKB (guinea pig cerebral cortex). The method, then:
CCKA and CCKB receptor binding assays were performed, by using guinea pig cerebral cortex (CCKB) or rat pancreas (CCKA). […]. J. Pharmacol., 269, 249-254]. Pancreatic membranes were prepared in a similar way but by Charpentier et al [(1988), Cyclic cholecystokinin analogues with high selectivity for central receptors., Proc Natl Acad Sci USA, 85, 1968-1972]. The […] CCK binding assay: Tissues were homogenised in ice cold sucrose (0.32 M, 25 ml) for 15 strokes at 500 rpm and centrifuged at 13000 rpm for 10 mins. The supernatant was re-centrifuged at 13000 rpm for 20 mins. The resulting pellet was re-dispersed to the required volume of buffer at 500 rpm and stored in aliquots at […].
The samples were incubated {with membranes (0.1 mg/ml)} in 20 mM Hepes, 1 mM EGTA, 5 mM MgCl2, 150 mm NaCl, 0.25 mg/ml bacitracin at pH 6.5 for 2 hrs at RT and then […] by centrifugation at 1100 rpm for 5 minutes. The membrane pellets were washed twice with water and the bound radioactivity was measured in a Packard Cobra Auto-gamma counter (B5005). All binding assays were carried out with L-363, 260 as an internal non-specific standard. Controls (no compound) were also added. All samples were made in duplicate and repeated twice. All compounds were initially screened for percentage inhibition at 20 μM. Samples showing an average inhibition of <35% were diluted to 2 μM and re-screened and if active diluted again.

Take `O=C1Nc2ccc(Cl)cc2C(c2ccccc2)=NC1Nc1ccc(Cl)cc1` (stereo not drawn): the IC50 on CCKA receptor was at least 20 µM; at CCKB receptor (read-out: IC50 CCKB, Table 3), 2.9 µM.
In the case of `Cc1ccccc1NC1N=C(c2ccccc2)c2cc(Cl)ccc2NC1=O` (stereo not drawn), the “Ratio CCKB:CCKA” value at CCKA receptor is “+113”. The half-maximal inhibitory concentration (IC50) on CCKA receptor was 10 µM; on CCKB receptor (read-out: IC50 CCKB, Table 3), 7.1 µM.
For the compound `Cc1ccc(C)c(NC2N=C(c3ccccc3)c3cc(Cl)ccc3NC2=O)c1` (stereo not drawn), on CCKA receptor, the “Ratio CCKB:CCKA” value came out at 6 and the IC50 worked out at 1 µM. Further, on CCKB receptor (read-out: IC50 CCKB, Table 3), the IC50 came to 6 µM.
In the case of `O=C1Nc2ccc(Cl)cc2C(c2ccccc2)=NC1N(Cc1ccccc1)Cc1ccccc1` (stereo not drawn), at CCKB receptor (read-out: CCKB IC50, Table 1), the concentration for half-maximal inhibition (IC50) was 0.26 µM.

The values are drawn from patent US20070185094A1, “Novel 3-substitued-1,4-benzodiazepines” (ASTON UNIVERSITY, priority 2003, published 2007).
